Values of other authors, collected in PMC7601231 (Polymers, 2020).

Conditions: in plain water; ref [15],[16],[17]; cited from earlier work

Compound: CC(=O)O[C@@]12CO[C@@H]1C[C@H](O)[C@@]1(C)C(=O)[C@H](O)C3=C(C)[C@@H](OC(=O)[C@H](O)[C@@H](NC(=O)OC(C)(C)C)c4ccccc4)C[C@@](O)([C@@H](OC(=O)c4ccccc4)[C@H]21)C3(C)C [DTX, Docetaxel]
- aqueous solubility: 1 to 5 µg/mL
